# Earlier results as cited in patent publication US20120141398A1, “HAIR DYE CONTAINING ONE OR MORE EDIBLE OR COSMETIC COLORS” (priority 2010, published 2012).
# At least one compound was matched to its structure with a doubt left.
# System: Salmonella typhimurium
row,SMILES,Ames Test (mutagenicity)
1,"Nc1ccc(N)c(Oc2ccccc2)c1 [2,5 diaminodiphenyl ether]",+
2,"Nc1ccc(Oc2ccccc2)c(N)c1 [2,4 diaminodiphenyl ether]",+
3,CC(C)c1cc([N+](=O)[O-])cc(N)c1N [4-nitro-2-amino-6β-isopropylaniline],+
